Experimental data from PubChem BioAssay AID493014 (National Center for Advancing Translational Sciences (NCATS), 2011).
The campaign covered roughly 340,000 compounds. About 170 (0.05%) were called active. Inconclusive results, whose numbers are uncertain, are shown with a selection of clear calls. Calls come from the whole dose curve; as a rule, active = well fitted inhibition curve with a large enough effect in the signal ratio, with a control signal flat (not every such curve was filed as active); inconclusive = small, poorly fitted or top-dose-only effect, or effect the other way, or a change in a side signal; inactive = flat fitted curve, though single readings scatter; the % refers to the signal ratio. Potencies beside an inconclusive call are fits to weak or partial responses and may not hold up.

Assay: qHTS Assay to Find Inhibitors of Chronic Active B-Cell Receptor Signaling;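 for activity change, negative = inhibition: plate controls were basal doxycycline-induced cells for no effect and cells given 10 µM MG132 for full effect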
Conditions: ABC-DLBCL IkBa-CBG/CBR reporter, luminescence ratio (green luciferase fused to IkBa over red control in TMD8 lymphoma cells), 4 h; activity change, negative = inhibition: at 46.1 µM (top of the series) unless noted
Procedure, shortened: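 TMD8 ABC-DLBCL cells carrying doxycycline-inducible green luciferase fused to IkappaBalpha plus unfused red luciferase were exposed to compounds (up to 46 uM) for 4 hrs at 37C. Activity came from the overlap-corrected green/red luminescence ratio.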
Potency is the fitted concentration of half-maximal effect.

Structure (SMILES) | Potency | activity change, negative = inhibition
CC(Oc1ccc(Cl)cc1Cl)C(=O)NCc1ccncc1 (stereo not given) | inconclusive: 28.2 µM [falling, partial curve, poor fit] | 
COc1cc(/C=N/N=C(\N)c2nonc2N)cc(OC)c1OC |  | inconclusive: 18.2%
C=CCNc1nc(Nc2ccc(-c3nc4ccccc4o3)cc2)nc(N2CCOCC2)n1 | inconclusive: 7.31 µM [rising, partial curve, poor fit] | 
N/C(=N\OCC(=O)Nc1ccc(F)c(Cl)c1)c1ccccc1 |  | inactive: 2.21%
C/C(=N\NC(=O)CSCc1ccc([N+](=O)[O-])cc1)c1ccccc1 |  | inactive: -14.7%
O=[N+]([O-])c1cc(F)c(N2CCOCC2)cc1N1CCCCC1 |  | inconclusive: 3.11%
CCOC(=O)CCCNC(=O)COC(=O)c1cc(C)cc(C)c1 | inconclusive: 16.4 µM [falling, partial curve, poor fit] | 
CCc1ccc(-n2nnnc2SCC(=O)NNC(=O)c2ccco2)cc1 |  | inconclusive: 9.03%
CCOC(=O)c1ccc(N2C(=O)C(CC(=O)NC)N(CCc3ccc(OC)c(OC)c3)C2=S)cc1 (stereo not given) | inconclusive: 12.6 µM [falling, partial curve] | 
CCOc1ccc(-c2ccc(SC)nn2)cc1 | inconclusive: 3.98 µM [falling, full curve] | 
C#CCOCCOCCOCCNc1nc(N2CCN(C(=O)CCCCCCCCCCNC(=O)Cn3cc(C[C@@H](C)O)nn3)CC2)nc(N2CCN(C(=O)CCCCCCCCCCNC(=O)[C@@H](CCSC)n3cc(CCO)nn3)CC2)n1 |  | inconclusive: 3.17%
Nc1cc2nn(-c3ccccc3)nc2cc1Cl | inconclusive: 15.8 µM [falling, single point] | 
CS(=O)(=O)N1CCc2cc(-c3csc(NC(=O)C(c4ccccc4)c4ccccc4)n3)ccc21 |  | inactive: 12.5%
CCCc1cc(-c2n[nH]c(C(=O)OCC)c2-c2cscn2)c(O)cc1O |  | inconclusive: -0.842%
Cc1cc(C)cc(NC(=O)c2ccc(N3C(=O)C4CCCCC4C3=O)cc2)c1 (stereo not given) |  | inconclusive: -2.95%
COc1cccc2c1C(CO)N1C(C#N)C3CC(C(=O)O)C(C1C2)N3C (stereo not given) |  | inconclusive: 19.9%
CCn1c(=O)c(C(=O)Nc2ccccc2S(N)(=O)=O)c(O)c2ccccc21 | inconclusive: 5.62 µM [rising, single point] | 
COc1cc(C(=O)N2CCN(c3cc(Cl)ccc3Cl)CC2)cc(OC)c1OC |  | inconclusive: -22.4%
S=C1NCN(Cc2cccnc2)CN1c1cccc(Cl)c1 |  | inactive: 0.123%
O=C(N1CCCCC1)N1CCN(C(=O)N2CCCCC2)CC1 |  | inconclusive: 4.56%
COc1ccc(-c2nnc(NC(=O)C(C)C)o2)cc1 | inconclusive: 23.1 µM [falling, single point] | 
CC(C)c1ccc(NC(=S)N2CCCC2)cc1 |  | inconclusive: 2.72%
CCOC(=O)c1c(-c2ccc(OC)cc2)csc1NC(=O)CSc1nnc(C)c(=O)[nH]1 |  | inactive: 9.96%
O=C1CC(N(CCc2ccccc2)C(=S)Nc2ccccc2)C(=O)N1c1ccccc1 (stereo not given) |  | inconclusive: 2.89%
CCOC(=O)c1sc2nc(CC(=O)OC)nc(NCC(=O)OC)c2c1C |  | inconclusive: 12.6%
COc1ccc(/C=C/C(=O)Oc2ccc(/C=N/NC(=O)COc3c(C)cccc3C)cc2)cc1 |  | inactive: 0.184%
CCC1CCCN1Cn1cnc2c([nH]c3ccc(Cl)cc32)c1=O (stereo not given) |  | inconclusive: 5.74%

Structure (SMILES) | Potency | activity change, negative = inhibition
O=C(Nc1scc(-c2cccs2)c1C(=O)O)c1cccs1 | inconclusive: 11.2 µM [falling, partial curve, poor fit] | 
Cc1cccc(C)c1OCc1nnc(SCC(=O)Nc2ccc(N3CCOCC3)cc2)o1 |  | inactive: -2.37%
CCCn1cnc2c(sc3nc4c(cc32)CSC(C)(C)C4)c1=O |  | inconclusive: 12%
Cc1onc(-c2ccccc2)c1C(=O)N/N=C/c1c[nH]c2ccccc12 |  | inconclusive: -14.6%
C=C1CCC[C@]2(C)C[C@H]3OC(=O)C(CNCCN(CC)CC)[C@H]3CC12 (stereo not given in full) |  | inconclusive: -9.57%
CNC(=O)NC(=O)C(C)Oc1ccccc1F (stereo not given) | inconclusive: 31.6 µM [falling, single point] | 
C=CCn1c(SCCCC)nc(O)cc1=O |  | inconclusive: 27%
CSCCC(NC(=O)c1ccco1)C(=O)Nc1ccc(C)cn1 (stereo not given) |  | inconclusive: -2.09%
COc1ccc(-c2nc3scc(CCNS(=O)(=O)c4ccc(Oc5ccccc5)cc4)n3n2)cc1 |  | inconclusive: 8.82%
COc1ccc(Cc2noc(CN(C)CCc3ccccc3)n2)cc1OC | inconclusive: 35.5 µM [falling, single point] | 
CCC(=O)N1c2ccc(S(=O)(=O)CCC(=O)NCc3cccs3)cc2CC1C (stereo not given) |  | inconclusive: -24.4%
CCN(CC)CCCNC(=O)c1cn(CC(C)C)c(=O)c2c1c1ccccc1n2C |  | inactive: 3.59%
CCOc1ccc(C(=O)Cc2cc3cccc(OC)c3oc2=O)cc1 |  | inconclusive: -16.2%
COc1ccc(C2=CC(=O)C=CC2=O)cc1 |  | inconclusive: 20%
COc1ccc(-n2cc(CNC3CCC(O)CC3)c(-c3cccc(F)c3)n2)cc1 (stereo not given) |  | inconclusive: -16.4%
Cc1cc(C(=O)NCc2ccco2)cs1 |  | inconclusive: 5.24%
COC(=O)CN1C(=S)N(c2ccc(F)cc2)C(=O)C1CC(=O)Nc1ccc(OC)cc1 (stereo not given) |  | inactive: -2.13%
O=C(CN1CCCCC1)Nc1cc(Cl)ccc1Oc1ccccc1 |  | inconclusive: 14.6%
C/C(=N\NC(=S)NCc1ccccc1)c1ccc2c(c1)OCCO2 | inconclusive: 14.1 µM [falling, single point] | 
CC1(C)Cc2ccccc2-c2nnc(-c3ccco3)n21 | inconclusive: 20.6 µM [falling, single point] | 
Cc1cc2cc(CNC(=O)c3ccco3)ccc2n1C |  | inconclusive: -0.807%
Cc1ccc(-n2[nH]c(C)c(C=Nc3ccc(S(=O)(=O)Nc4nc(C)cc(C)n4)cc3)c2=O)c(C)c1 |  | inconclusive: 10.6%
CC1CCN(c2ccc(-c3ccc(NC(=O)C(F)(F)F)cc3)nn2)CC1 | inconclusive: 11.2 µM [falling, partial curve] | 
Cc1cccc(C)c1NC(=O)c1ccc([N+](=O)[O-])s1 |  | inconclusive: -3.43%
Cc1nc(-c2ccc(C(=O)N3CCCC3)cc2)cs1 | inconclusive: 11.2 µM [falling, partial curve, poor fit] | 
O=C(/C=C/c1ccco1)Nc1nc(-c2ccccn2)cs1 |  | inconclusive: 0.892%
c1ccc(CSc2ncnc3sccc23)cc1 |  | inactive: -1.29%

In the list so far, three have a nitro group on carbon:
Structure (SMILES) | Potency | activity change, negative = inhibition
C/C(=N\NC(=O)CSCc1ccc([N+](=O)[O-])cc1)c1ccccc1 |  | inactive: -14.7%
O=[N+]([O-])c1cc(F)c(N2CCOCC2)cc1N1CCCCC1 |  | inconclusive: 3.11%
Cc1cccc(C)c1NC(=O)c1ccc([N+](=O)[O-])s1 |  | inconclusive: -3.43%

The list continues:

Structure (SMILES) | Potency | activity change, negative = inhibition
Cc1nnc(C)n1/N=C/c1cccn1C |  | inconclusive: 2.34%
NC(=O)c1ccsc1NC(=O)CCc1ccccc1 | inconclusive: 22.4 µM [falling, partial curve] | 
COc1ccc(/C=C2\SC(=O)N(CCC(=O)N3CCCCC3CCO)C2=O)cc1 (stereo not given) | inconclusive: 22.4 µM [falling, partial curve] | 
C/C(CCc1ccc2c(c1)OCO2)=N\N=C1\NC(=O)CC(C(=O)Nc2ccccc2F)S1 (stereo not given) |  | inactive: -24.1%
c1ccc(-n2nnc3c(N4CCOCC4)ncnc32)cc1 | inconclusive: 35.5 µM [falling, single point] | 
CSc1nc(Nc2ccc(Cl)cc2)c(C#N)c(=O)[nH]1 |  | inconclusive: 0.44%
O=C(Nc1ccc2c(c1)OCCO2)c1ccc(Br)s1 | inconclusive: 16.4 µM [falling, partial curve] | 
COc1c(Cl)cc(Cl)cc1/C=C/C(=O)c1ccc(NC(=O)c2cccs2)cc1 | inconclusive: 29.1 µM [falling, single point] | 
COc1ncccc1-c1nnn(-c2ccc(C)cc2)n1 | inconclusive: 35.5 µM [falling, single point] | 
Cc1ccc(Cl)cc1N1CCN(C(=O)c2ccc(CS(=O)c3ccccc3)o2)CC1 (stereo not given) | inconclusive: 25.1 µM [falling, single point] | 
Cn1c(N)c(C(=O)COC(=O)COc2ccccc2C#N)c(=O)n(C)c1=O |  | inactive: 4.86%
CC1(c2ccc3noc(-c4ccccc4)c3c2)OCCO1 |  | inactive: 8.57%
COc1ccc(Br)cc1CN1CCN(C(=O)c2ccc(F)cc2)CC1 |  | inactive: -8.44%
CC(=O)c1ccc(NC(=O)CCOc2cc(C)ccc2C)cc1 |  | inactive: 10.1%
CC(=O)N1c2ccc(S(=O)(=O)NCc3ccco3)cc2CC1C (stereo not given) |  | inactive: -0.926%
COc1ccc(C(=O)Nc2ccc(CN3CCOCC3)cc2)cc1 |  | inconclusive: 1.77%
CCOC(=O)C1CCN(c2ccccc2CN2CCN(c3ccccc3OCC)CC2)CC1 |  | inconclusive: 3.34%
Cc1ccccc1Cn1nnc(-c2ccc(C(=O)O)cc2)n1 | inconclusive: 12.6 µM [falling, partial curve] | 
COc1ccc(CNC(=O)C(c2ccco2)N(C(=O)c2ccccn2)c2ccccc2)cc1 (stereo not given) | inconclusive: 20 µM [falling, partial curve] | 
CC(C)C(NC(=O)c1ccc(C(C)(C)C)cc1)C(=O)NC1=NCCS1 (stereo not given) | inconclusive: 25.9 µM [falling, single point] | 
COc1cc(COc2ccc(-c3nnco3)cc2)ccc1OC(F)F |  | inconclusive: 0.325%
Oc1c(Cl)cc(CN2CCCCC2)c2cccnc12 | inconclusive: 22.4 µM [falling, single point] | 
O=C(NCC1CCCO1)c1c(O)c2cccc3c2n(c1=O)CC3 (stereo not given) |  | inactive: -11.1%
COc1cccc(/C=N/NC(=O)c2cnccn2)c1 | inconclusive: 32.6 µM [falling, partial curve, poor fit] | 
C/C(=N/NC(=O)c1cc2ccccc2cc1O)c1ccco1 |  | inactive: 0.163%
CCOc1ccc(N(C)S(=O)(=O)c2ccc(C)c(C(=O)N3CCN(Cc4ccc5c(c4)OCO5)CC3)c2)cc1 |  | inconclusive: -11.1%
